Our source for the binding values is paper PMC5129514.

The chains behind the UniProt entries cited, without tags or fusion partners. Where a name states a change or a piece, a line headed by the entry shows the natural chain unless it says otherwise. A line that says so, or that is headed by a name, gives the form on record, which may keep a tag or linker. Residues count along the entry.
UniProt Q3UVX5, residues 19-1203: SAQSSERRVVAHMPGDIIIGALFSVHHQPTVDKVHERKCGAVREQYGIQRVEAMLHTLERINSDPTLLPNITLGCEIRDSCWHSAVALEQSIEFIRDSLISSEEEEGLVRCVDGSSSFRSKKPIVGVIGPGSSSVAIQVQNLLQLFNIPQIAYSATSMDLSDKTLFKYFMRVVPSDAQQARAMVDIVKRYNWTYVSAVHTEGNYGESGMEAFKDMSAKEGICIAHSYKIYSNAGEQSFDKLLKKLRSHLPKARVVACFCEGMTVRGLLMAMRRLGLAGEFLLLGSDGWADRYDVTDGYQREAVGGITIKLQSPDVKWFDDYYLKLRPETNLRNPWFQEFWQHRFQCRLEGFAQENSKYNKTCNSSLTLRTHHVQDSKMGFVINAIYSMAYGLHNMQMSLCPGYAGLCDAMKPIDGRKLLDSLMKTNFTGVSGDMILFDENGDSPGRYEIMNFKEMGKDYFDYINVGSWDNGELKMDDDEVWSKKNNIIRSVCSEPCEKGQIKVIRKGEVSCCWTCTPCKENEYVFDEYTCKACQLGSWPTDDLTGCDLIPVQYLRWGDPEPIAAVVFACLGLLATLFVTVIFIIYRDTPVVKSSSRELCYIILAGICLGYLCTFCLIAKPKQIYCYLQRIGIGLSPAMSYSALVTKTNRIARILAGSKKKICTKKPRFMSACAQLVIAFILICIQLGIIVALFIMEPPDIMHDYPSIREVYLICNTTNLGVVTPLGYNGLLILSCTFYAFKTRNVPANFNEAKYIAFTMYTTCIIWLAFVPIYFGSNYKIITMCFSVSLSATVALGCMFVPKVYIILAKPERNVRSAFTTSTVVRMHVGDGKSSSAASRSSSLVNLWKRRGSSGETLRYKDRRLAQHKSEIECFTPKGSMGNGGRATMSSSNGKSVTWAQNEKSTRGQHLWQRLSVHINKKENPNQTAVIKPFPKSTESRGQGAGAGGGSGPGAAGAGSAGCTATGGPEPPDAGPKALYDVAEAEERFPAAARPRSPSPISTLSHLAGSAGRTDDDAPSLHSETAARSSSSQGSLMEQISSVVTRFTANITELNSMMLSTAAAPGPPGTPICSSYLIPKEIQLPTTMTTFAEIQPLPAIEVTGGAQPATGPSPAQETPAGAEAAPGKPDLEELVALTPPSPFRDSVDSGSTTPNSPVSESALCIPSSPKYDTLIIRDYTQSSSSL
metabotropic glutamate receptor 1, isoform a (P97772, residues 21-1199): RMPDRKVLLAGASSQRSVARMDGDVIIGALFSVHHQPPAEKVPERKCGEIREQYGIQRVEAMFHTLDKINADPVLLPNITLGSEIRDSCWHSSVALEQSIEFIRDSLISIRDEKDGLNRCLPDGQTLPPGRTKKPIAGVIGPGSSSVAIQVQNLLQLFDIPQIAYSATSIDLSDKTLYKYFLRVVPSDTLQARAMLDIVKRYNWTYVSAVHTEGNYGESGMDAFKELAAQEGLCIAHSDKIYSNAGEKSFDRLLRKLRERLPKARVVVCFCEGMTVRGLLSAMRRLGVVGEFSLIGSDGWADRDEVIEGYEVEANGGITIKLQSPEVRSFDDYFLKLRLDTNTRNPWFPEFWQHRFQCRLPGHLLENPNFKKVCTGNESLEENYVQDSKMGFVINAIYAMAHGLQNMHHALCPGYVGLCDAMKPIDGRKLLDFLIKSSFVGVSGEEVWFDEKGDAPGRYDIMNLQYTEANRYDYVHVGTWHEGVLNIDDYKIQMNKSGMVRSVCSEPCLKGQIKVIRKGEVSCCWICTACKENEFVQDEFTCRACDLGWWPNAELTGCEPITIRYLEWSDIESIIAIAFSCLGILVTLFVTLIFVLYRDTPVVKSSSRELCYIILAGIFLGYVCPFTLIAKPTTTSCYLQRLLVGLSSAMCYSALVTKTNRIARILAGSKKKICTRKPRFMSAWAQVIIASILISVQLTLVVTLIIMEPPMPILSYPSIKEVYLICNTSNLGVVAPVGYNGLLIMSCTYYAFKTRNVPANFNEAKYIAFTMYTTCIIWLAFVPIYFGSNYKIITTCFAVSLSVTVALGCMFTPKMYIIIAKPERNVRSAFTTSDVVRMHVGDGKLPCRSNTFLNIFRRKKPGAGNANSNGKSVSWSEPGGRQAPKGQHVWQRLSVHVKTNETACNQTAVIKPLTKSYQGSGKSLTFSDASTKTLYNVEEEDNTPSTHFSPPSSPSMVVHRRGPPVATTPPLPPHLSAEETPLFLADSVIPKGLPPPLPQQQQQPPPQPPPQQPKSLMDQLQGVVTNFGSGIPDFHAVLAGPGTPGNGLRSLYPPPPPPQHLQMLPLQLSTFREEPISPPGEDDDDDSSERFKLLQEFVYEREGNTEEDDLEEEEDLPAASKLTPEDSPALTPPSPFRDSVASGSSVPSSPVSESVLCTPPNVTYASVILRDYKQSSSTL
metabotropic glutamate receptor 1, isoform b (P97772, form named): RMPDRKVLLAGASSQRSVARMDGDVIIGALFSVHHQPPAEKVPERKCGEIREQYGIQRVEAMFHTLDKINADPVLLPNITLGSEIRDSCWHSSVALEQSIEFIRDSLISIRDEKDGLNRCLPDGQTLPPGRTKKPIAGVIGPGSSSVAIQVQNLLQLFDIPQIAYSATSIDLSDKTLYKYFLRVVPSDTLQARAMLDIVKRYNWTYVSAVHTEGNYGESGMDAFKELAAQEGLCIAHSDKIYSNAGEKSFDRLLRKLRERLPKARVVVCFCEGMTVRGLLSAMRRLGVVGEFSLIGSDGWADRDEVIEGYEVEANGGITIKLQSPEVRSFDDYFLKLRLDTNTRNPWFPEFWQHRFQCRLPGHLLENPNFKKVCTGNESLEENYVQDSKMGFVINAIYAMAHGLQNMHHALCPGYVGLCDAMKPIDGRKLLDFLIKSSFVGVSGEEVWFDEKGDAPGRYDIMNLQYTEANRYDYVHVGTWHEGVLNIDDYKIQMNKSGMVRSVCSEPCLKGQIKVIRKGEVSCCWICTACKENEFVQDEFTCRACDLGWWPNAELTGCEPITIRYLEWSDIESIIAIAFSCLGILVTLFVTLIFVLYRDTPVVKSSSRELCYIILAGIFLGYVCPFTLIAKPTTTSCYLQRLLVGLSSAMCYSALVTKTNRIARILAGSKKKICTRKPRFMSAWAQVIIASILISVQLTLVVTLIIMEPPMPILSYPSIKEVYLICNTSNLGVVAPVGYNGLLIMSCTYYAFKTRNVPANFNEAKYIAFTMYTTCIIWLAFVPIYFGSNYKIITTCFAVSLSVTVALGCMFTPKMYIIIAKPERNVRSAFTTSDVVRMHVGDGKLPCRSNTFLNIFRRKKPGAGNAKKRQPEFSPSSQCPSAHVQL
UniProt Q9QYS2, residues 23-879: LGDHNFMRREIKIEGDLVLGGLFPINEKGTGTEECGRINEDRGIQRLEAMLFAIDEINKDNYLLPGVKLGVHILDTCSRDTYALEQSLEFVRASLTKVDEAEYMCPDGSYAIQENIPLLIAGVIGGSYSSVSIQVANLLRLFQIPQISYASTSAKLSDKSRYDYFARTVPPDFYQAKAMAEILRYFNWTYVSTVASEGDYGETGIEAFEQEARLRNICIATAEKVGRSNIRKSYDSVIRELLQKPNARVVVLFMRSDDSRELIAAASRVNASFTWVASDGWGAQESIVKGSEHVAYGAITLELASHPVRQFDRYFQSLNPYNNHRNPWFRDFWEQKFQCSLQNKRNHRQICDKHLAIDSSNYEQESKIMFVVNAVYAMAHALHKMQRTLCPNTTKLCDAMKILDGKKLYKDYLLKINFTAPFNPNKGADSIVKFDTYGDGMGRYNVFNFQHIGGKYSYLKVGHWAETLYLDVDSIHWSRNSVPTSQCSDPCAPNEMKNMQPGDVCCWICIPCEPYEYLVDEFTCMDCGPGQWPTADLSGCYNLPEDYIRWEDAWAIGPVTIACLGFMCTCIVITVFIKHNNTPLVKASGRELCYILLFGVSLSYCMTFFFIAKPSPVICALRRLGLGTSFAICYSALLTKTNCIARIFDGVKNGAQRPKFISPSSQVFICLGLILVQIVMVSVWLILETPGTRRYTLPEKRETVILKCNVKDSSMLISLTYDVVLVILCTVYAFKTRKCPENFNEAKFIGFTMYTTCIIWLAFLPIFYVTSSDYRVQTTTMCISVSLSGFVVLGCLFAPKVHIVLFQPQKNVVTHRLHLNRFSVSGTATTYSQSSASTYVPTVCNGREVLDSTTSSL
UniProt A8DUK4: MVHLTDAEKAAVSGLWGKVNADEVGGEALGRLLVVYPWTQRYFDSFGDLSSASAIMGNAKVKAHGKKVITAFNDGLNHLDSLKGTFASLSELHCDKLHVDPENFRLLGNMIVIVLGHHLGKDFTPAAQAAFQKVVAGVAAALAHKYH
UniProt Q06890, residues 22-448: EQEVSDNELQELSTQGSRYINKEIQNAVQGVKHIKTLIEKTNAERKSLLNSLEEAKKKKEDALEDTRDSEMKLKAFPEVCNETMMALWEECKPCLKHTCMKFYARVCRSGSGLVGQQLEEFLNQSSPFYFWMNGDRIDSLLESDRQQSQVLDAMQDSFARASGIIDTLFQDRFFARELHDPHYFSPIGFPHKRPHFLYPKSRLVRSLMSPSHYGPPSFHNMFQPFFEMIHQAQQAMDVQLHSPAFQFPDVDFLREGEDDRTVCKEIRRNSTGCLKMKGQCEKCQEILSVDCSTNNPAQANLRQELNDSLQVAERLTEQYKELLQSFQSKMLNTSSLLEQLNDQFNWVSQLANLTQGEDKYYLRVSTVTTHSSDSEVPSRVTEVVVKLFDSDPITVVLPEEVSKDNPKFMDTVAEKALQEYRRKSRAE
UniProt P26443, residues 54-558: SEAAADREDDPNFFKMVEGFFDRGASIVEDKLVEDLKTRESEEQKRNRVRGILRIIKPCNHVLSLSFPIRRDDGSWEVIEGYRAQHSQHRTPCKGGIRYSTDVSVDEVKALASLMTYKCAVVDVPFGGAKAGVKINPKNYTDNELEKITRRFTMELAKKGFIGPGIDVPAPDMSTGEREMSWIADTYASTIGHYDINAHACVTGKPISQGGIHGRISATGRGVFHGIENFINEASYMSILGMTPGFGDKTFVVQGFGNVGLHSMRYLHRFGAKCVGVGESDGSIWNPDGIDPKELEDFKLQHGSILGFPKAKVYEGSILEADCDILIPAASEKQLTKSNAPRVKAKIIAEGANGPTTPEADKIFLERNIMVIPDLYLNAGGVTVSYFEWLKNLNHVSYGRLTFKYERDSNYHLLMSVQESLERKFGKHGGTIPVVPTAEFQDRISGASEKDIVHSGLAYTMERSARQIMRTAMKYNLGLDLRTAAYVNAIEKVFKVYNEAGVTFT
UniProt P10852: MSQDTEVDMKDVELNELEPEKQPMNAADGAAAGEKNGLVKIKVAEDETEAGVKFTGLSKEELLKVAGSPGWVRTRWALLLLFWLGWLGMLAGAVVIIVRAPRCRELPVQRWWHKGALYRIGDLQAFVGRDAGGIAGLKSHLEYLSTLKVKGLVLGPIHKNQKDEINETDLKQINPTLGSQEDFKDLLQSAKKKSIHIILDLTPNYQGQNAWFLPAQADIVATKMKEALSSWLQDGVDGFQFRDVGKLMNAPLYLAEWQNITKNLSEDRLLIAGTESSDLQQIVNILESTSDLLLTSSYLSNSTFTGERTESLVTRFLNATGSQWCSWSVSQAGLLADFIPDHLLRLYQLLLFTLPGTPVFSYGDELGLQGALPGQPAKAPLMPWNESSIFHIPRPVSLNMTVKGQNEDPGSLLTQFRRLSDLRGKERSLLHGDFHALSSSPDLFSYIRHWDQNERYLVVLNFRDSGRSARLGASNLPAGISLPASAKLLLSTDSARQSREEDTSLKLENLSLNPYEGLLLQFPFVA

Results are given in words; binding and its absence hold for the method and conditions named. Binding seen in cells or lysates may run through a third protein. A yes stands for co-enrichment or nearness to the bait. Other partners may have been found. For some assays here: No binding means not detected with the bait.

Assay [1] has as its target metabotropic glutamate receptor 5 (mouse (endogenous in hippocampus and cortex)) (UniProt Q3UVX5). The assay is described as follows: affinity purification with mass spectrometry; IP with anti-mGluR5 polyclonal antibody (10 ug, overnight, 4°C) from 1% n-dodecyl β-D-maltoside extracts (25 mM HEPES pH 7.4, 150 mM NaCl) of mouse hippocampus and cortex, Protein A/G agarose, FASP digestion, LC-MS/MS; mGluR5 knockout mice as negative control; filter: present in ≥3 of 4 WT IPs and ≥10-fold enriched.

Assay [2] has the same target. The assay is described as follows: affinity purification with mass spectrometry; IP with anti-mGluR5 antibody from equal amounts (2 mg) of P2, microsome and P1 fractions of mouse hippocampus; SDS-PAGE and in-gel digestion, LC-MS/MS; empty bead control.
Assay [3] concerns the target metabotropic glutamate receptor 1, isoform a (mouse (endogenous in hippocampus and cortex)) (UniProt P97772). Briefly: affinity purification with mass spectrometry; reverse IP with monoclonal anti-mGluR1a antibody (BD Biosciences, clone G209-488) from mouse hippocampus extract, LC-MS/MS; non-mGluR1 antibody as negative control; >10-fold enrichment.

As to “Grm3 (from UniProt Q9QYS2 23-879) (receptor)”, the binding result in assay [1] was “binds”.

For the substance hemoglobin (from UniProt A8DUK4 1-147), the binding result in assay [1] was “no binding”. As to Clu (from UniProt Q06890 22-448), in assay [1], the binding result is on record as “binds”. For the substance “metabotropic glutamate receptor 1, isoform b (from UniProt P97772 21-886)”, the binding entry in assay [2], in assay [3] and in assay [1] was “binds” throughout. As to “Glud1 (from UniProt P26443 54-558) (enzyme)”, the binding entry in assay [1] is on record as “no binding”. “metabotropic glutamate receptor 5 (from UniProt Q3UVX5 19-1203)”: the binding entry in assay [3] was “binds”. On to “metabotropic glutamate receptor 1, isoform a (from UniProt P97772 21-1199)”, for which the binding entry in assay [2] and in assay [1] was “binds” throughout. For the substance Slc3a2 (from UniProt P10852 1-526), in assay [1], the binding entry is listed as “no binding”.
